Structures were worked out from names or drawings and are uncertain.
Key:
[1] = target: metabolism of dextromethorphan in human liver microsomes (Homo sapiens, UniProt P10635); experiment: Inhibition of dextromethorphan metabolism (dextrorphan formation) in human liver microsomes; conditions: read-out: Mean IC50; human liver microsomes 0.5 mg/mL, dextromethorphan 5 µM, 37 °C, 2 mM NADPH, pH 7.4
[2] = Pharmacokinetic study in human subjects given dextromethorphan alone or with bupropion; plasma concentrations by LC-MS/MS; conditions: Day 8, after bupropion administration (150 mg, with dextromethorphan); label = analyte in plasma

By UniProt entry, the sequences of proteins in these tests, tags left out.
UniProt P10635, whole entry: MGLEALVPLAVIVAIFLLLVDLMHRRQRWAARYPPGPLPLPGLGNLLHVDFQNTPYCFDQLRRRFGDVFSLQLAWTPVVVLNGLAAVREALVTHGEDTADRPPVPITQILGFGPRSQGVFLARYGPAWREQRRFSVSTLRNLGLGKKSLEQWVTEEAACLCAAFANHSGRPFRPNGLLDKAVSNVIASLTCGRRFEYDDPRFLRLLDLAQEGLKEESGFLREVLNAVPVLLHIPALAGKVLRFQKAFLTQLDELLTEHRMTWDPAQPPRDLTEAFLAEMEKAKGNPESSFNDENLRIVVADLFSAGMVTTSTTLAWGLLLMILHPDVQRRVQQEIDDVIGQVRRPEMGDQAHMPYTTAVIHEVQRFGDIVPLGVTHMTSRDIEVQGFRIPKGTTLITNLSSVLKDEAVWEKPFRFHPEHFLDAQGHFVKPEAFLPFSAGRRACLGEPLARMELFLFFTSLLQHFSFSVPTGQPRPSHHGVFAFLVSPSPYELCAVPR

| Compound | IC50 [1] | average plasma concentrations [2] |
| --- | --- | --- |
| C[C@H]1NC(C)(C)CO[C@]1(O)c1cccc(Cl)c1 | 8.2 µM |  |
| C[C@@H](NC(C)(C)C)[C@H](O)c1cccc(Cl)c1 (relative stereo) | 3.9 µM | ≥ 100 ng/mL |
| C[C@H](NC(C)(C)C)[C@H](O)c1cccc(Cl)c1 (relative stereo) | 1.4 µM | ≥ 20 ng/mL |
